The list shows a part of the results. The source does not settle which construct or isoform was used.

In the assay the target is T1, ELF2 (UniProt Q15723).
T1 sequence: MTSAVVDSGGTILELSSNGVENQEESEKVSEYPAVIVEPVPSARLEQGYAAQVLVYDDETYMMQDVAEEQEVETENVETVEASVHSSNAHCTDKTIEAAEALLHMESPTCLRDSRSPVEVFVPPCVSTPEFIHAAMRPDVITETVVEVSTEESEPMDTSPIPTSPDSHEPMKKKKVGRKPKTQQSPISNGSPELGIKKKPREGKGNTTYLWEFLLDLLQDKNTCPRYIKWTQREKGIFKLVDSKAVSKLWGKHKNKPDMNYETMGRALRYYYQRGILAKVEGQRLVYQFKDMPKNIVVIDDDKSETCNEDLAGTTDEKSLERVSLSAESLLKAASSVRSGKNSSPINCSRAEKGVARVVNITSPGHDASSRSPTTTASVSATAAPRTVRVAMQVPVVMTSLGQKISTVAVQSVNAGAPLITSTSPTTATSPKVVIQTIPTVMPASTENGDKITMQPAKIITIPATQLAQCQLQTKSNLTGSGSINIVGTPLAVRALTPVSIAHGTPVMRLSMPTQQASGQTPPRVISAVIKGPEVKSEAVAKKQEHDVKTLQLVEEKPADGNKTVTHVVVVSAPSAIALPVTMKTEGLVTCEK
Put plainly: DAPPL (digital affinity profiling via proximity ligation, sequencing). The following applies: 10 mM Tris-HCl pH 7.5, 50 mM NaCl, 1 mM DTT, 4% glycerol, room temperature, 30 min; GST-TFs on glutathione beads, 16-mer random dsDNA library, 0.1% …; high values mean tight binding; double strand, one strand shown; scale: fold enrichment (6-mer frequency, TF over GST control).
As for CAGAAA, the binding signal was determined as 0.957.

The sequence ATGAAC gave a binding signal of 1.24. With TAGTTC, the binding signal worked out at 1.62. Then TTGTTA, with 1.27; and GCGCTT, with 1.4; and ATTGTA, with 1.14. Then TCTATG, with 1.07; and GCCCGA, with 0.931; and TGATCG, with 1.05. Then ATGCCC, with 1.26.

For the sequence TTCATT, the binding signal stood at 1.21. Then ACGTCT, with 1.09; and GGATTC, with 0.954. Then TCGACG, with 0.989; and AACACT, with 1.29; and TTCGAC, with 1.35. Then CGAATT, with 1.2.

CATTCG registered a binding signal of 1.09.

In turn, GCCAGA yielded a binding signal of 0.638. The same measure for CCGAAT: 1.19.

In the case of CCGTCT, the binding signal is 1.34. GCAATC returned a binding signal of 1.01.

The sequence TGGCTC came in with a binding signal of 1.34. Then GCTTAA, with 0.976. Then AAAACG, with 1.19. The same measure for TGTCTT: 1.33. For the sequence TGTCCT, the binding signal amounted to 1.48. On to TTCGTC, for which the binding signal is 1.23. Then CCACTC, with 1.2; and TCATGA, with 0.959; and TCTACC, with 1.59.

Take CTTCCG: the binding signal was 12.8.

Take TTCTGG: the binding signal is 1.22. Then TCTATC, with 1.18; and CACGAT, with 1.21; and GATTTG, with 1.13.

The sequence AGGAAT gave a binding signal of 0.842. Then ACAGAA, with 0.922. The same measure for TTGAGG: 1.07; for CCAATA: 1.18.

Values taken from article PMC7862700.
